In article PMC3094399 one finds binding data, which are given here for two molecules.

By UniProt entry, the sequences of proteins in these tests, tags left out. Residues count along the entry.
UniProt Q5HYA8, residues 37-995: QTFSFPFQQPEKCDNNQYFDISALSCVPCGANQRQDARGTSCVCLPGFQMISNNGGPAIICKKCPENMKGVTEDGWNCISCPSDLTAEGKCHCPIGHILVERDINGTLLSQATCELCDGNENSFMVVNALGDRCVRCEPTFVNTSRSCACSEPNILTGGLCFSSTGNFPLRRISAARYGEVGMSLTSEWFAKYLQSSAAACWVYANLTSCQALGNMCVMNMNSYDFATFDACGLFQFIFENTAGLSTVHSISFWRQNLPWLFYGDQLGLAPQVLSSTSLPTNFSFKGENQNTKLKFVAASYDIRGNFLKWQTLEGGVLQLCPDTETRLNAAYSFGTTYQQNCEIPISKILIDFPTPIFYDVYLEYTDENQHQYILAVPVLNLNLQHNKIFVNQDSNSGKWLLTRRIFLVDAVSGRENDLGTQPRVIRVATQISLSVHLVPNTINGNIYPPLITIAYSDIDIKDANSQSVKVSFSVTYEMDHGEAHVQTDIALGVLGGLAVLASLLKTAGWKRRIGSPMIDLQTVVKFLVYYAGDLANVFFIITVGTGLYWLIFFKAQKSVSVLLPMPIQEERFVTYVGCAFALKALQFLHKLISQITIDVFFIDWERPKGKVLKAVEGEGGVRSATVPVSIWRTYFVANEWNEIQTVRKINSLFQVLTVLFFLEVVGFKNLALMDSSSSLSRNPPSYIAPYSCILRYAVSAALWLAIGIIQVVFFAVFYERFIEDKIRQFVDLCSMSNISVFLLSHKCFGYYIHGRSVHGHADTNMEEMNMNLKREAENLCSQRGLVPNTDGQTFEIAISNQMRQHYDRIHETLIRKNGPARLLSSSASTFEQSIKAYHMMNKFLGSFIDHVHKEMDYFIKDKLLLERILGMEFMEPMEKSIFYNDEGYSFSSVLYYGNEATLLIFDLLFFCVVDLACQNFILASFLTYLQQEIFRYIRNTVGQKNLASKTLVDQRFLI

Results are given in words; binding and its absence hold for the method and conditions named. Binding seen in cells or lysates may run through a third protein. Some results given as binding are weak or reduced against the parent protein; the word gives no strength. Where a sequence is shown, tags or fusion partners need not be part of it.

The test deals with T1, MOR18-2, N-terminal Flag tag (mouse) (UniProt Q8VBV9).
T1 sequence: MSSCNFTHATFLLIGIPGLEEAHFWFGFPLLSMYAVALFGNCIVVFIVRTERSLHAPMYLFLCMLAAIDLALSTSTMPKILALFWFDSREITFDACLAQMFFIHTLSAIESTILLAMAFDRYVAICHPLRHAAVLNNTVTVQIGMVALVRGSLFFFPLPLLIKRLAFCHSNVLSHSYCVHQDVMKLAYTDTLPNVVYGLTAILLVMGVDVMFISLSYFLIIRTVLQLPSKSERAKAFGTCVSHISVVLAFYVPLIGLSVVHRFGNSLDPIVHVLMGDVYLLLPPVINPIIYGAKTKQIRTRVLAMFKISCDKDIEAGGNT
The experiment in a line: co-IP; COS cells co-transfected with Flag-tagged OR constructs and MKS3 or HA-tagged MKS1; immunoprecipitation with a Flag antibody, blot for MKS3 or for HA (MKS1).

As to “Meckel-Gruber syndrome 3 (MKS3; meckelin), full-length human (from UniProt Q5HYA8 37-995)”, the binding result was “binds”.

B1: Meckel-Gruber syndrome 1 (MKS1), HA-tagged (protein, UniProt Q9NXB0 1-559)
chain: MAETVWSTDTGEAVYRSRDPVRNLRLRVHLQRITSSNFLHYQPAAELGKDLIDLATFRPQPTASGHRPEEDEEEEIVIGWQEKLFSQFEVDLYQNETACQSPLDYQYRQEILKLENSGGKKNRRIFTYTDSDRYTNLEEHCQRMTTAASEVPSFLVERMANVRRRRQDRRGMEGGILKSRIVTWEPSEEFVRNNHVINTPLQTMHIMADLGPYKKLGYKKYEHVLCTLKVDSNGVITVKPDFTGLKGPYRIETEGEKQELWKYTIDNVSPHAQPEEEERERRVFKDLYGRHKEYLSSLVGTDFEMTVPGALRLFVNGEVVSAQGYEYDNLYVHFFVELPTAHWSSPAFQQLSGVTQTCTTKSLAMDKVAHFSYPFTFEAFFLHEDESSDALPEWPVLYCEVLSLDFWQRYRVEGYGAVVLPATPGSHTLTVSTWRPVELGTVAELRRFFIGGSLELEDLSYVRIPGSFKGERLSRFGLRTETTGTVTFRLHCLQQSRAFMESSSLQKRMRSVLDRLEGFSQQSSIHNVLEAFRRARRRMQEARESLPQDLVSPSGTLVS
In the case of B1, the binding result is “binds”.
